Taken from: PubChem BioAssay AID1224826 (NIAID, 2016)
Aim: 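Regulators of Tlr4 signalling leading to Tnf-alpha expression in macrophages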 (primary screen). Cell system: RAW264.7 G9 macrophages from mouse bearing reporters for p65 (GFP) and the Tnf promoter (mCherry). Reagents: siRNA pool against mouse genes, 100 nM. Timing: 16 h of LPS stimulation, after 2 days of siRNA transfection. Challenge: bacterial lipopolysaccharide (Salmonella minnesota R595), 10 ng/ml. Detection: 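Nuclear mCherry signal of the Tnf promoter reporter measured by imaging after background removal, scaled to each plate median and turned into robust z-scores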. Reading the numbers: Tnf reporter robust z-score: higher = stronger Tnf promoter reporter signal after LPS; Tnf reporter intensity: higher = stronger Tnf promoter reporter signal. Active means: 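Called active when robust z-score is at most -1.3, matching the median of the Tlr4 knock-down control, or over 3; control wells and wells with under 50 cells never active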. Calls: active = Tnf reporter clearly lowered or raised; inactive = no clear change in Tnf reporter.
Here is one part, drawn at random, of about 17,000 deposited reagents. Of all reagents, about 1,110 (6.6%) got an active call. 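Active means lowered or raised reporter signal; replicate intensities are raw and not normalised per plate.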 Not all columns of the deposit are shown. Reagent sequences are not shown.

| gene knocked down | Tnf reporter robust z-score | fewer than 50 cells in well | Tnf reporter intensity, replicate 1 | Call |
| --- | --- | --- | --- | --- |
| Or5d36 (olfactory receptor family 5 subfamily D member 36) | -1.02 | enough cells in well | 113 | inactive |
| Spsb3 (splA/ryanodine receptor domain and SOCS box containing 3) | – | fewer than 50 cells per well; well left out of calls | 138 | inactive |
| R3hcc1l (R3H domain and coiled-coil containing 1 like) | 2.88 | enough cells in well | 153 | inactive |
| Frem1 (Fras1 related extracellular matrix protein 1) | 0.3 | enough cells in well | 208 | inactive |
| Slc5a5 | -0.02 | enough cells in well | 209 | inactive |
| Aldoart1 (aldolase 1 A, retrogene 1) | -0.33 | enough cells in well | 193 | inactive |
| Cyp2d22 (cytochrome P450, family 2, subfamily d, polypeptide 22) | -0.13 | enough cells in well | 219 | inactive |
| Tspan15 (tetraspanin 15) | – | fewer than 50 cells per well; well left out of calls | 249 | inactive |
| Tspan13 (tetraspanin 13) | -0.19 | enough cells in well | 119 | inactive |
| Rnd1 (Rho family GTPase 1) | 0.8 | enough cells in well | 394 | inactive |
| Dnaja2 (DnaJ heat shock protein family (Hsp40) member A2) | – | fewer than 50 cells per well; well left out of calls | 85.8 | inactive |

Entries listed so far whose gene name starts with S or s:
| gene knocked down | Tnf reporter robust z-score | fewer than 50 cells in well | Tnf reporter intensity, replicate 1 | Call |
| --- | --- | --- | --- | --- |
| Spsb3 (splA/ryanodine receptor domain and SOCS box containing 3) | – | fewer than 50 cells per well; well left out of calls | 138 | inactive |
| Slc5a5 | -0.02 | enough cells in well | 209 | inactive |

More records follow:
| gene knocked down | Tnf reporter robust z-score | fewer than 50 cells in well | Tnf reporter intensity, replicate 1 | Call |
| --- | --- | --- | --- | --- |
| Trafd1 (TRAF type zinc finger domain containing 1) | -0.44 | enough cells in well | 194 | inactive |
| Pfkl (phosphofructokinase, liver, B-type) | 3.73 | enough cells in well | 382 | active |
| Rubcn | 0.48 | enough cells in well | 247 | inactive |
| Fbxo46 (F-box protein 46) | 0.05 | enough cells in well | 224 | inactive |
| Rbms3 (RNA binding motif, single stranded interacting protein) | – | fewer than 50 cells per well; well left out of calls | 92.2 | inactive |
| Aldh7a1 (aldehyde dehydrogenase family 7, member A1) | -1.05 | enough cells in well | 112 | inactive |
| Msx1 (msh homeobox 1) | -0.98 | enough cells in well | 183 | inactive |
| Trim39 (tripartite motif-containing 39) | -0.86 | enough cells in well | 85.4 | inactive |
| Neto1 (neuropilin (NRP) and tolloid (TLL)-like 1) | -2.08 | enough cells in well | 70.8 | active |
| Arvcf (armadillo repeat gene deleted in velocardiofacial syndrome) | 1.57 | enough cells in well | 229 | inactive |
| Il17a (interleukin 17A) | -1.17 | enough cells in well | 144 | inactive |
| Uap1 (UDP-N-acetylglucosamine pyrophosphorylase 1) | -0.51 | enough cells in well | 99.3 | inactive |
| N4bp3 (NEDD4 binding protein 3) | -0.17 | enough cells in well | 89.7 | inactive |
